One assay has as its system Chaetomium globosum. Description: microbe, parasite or virus in culture. The assay is classed as functional. The settings on record: BAM12 ATCC 6205, 168 h.
The test system of the next assay is LoVo. Description: cells. It is filed as functional, cell-based. The settings on record: Homo sapiens, 72 h.
In a further assay the test system is DLD-1. The assay is described as follows: cells. The assay is classed as functional, cell-based. The settings on record: Homo sapiens, DLD-1, 72 h.
A further assay concerns MCF7. Description: cells. The assay is classed as functional, cell-based. The settings on record: Homo sapiens, MCF7, 72 h.
Assay [1] deals with SK-OV-3. Description: cells. The assay is classed as functional, cell-based. The settings on record: Homo sapiens, SK-OV-3, 72 h.
For assay [2], the system named is SK-OV-3. Description: cells. The settings on record: Homo sapiens, SK-OV-3, 72 h. It is filed as functional, cell-based. This is another data set of the same source.
A further assay relates to MDA-MB-231. Description: cells. The assay is classed as functional, cell-based. The settings on record: Homo sapiens, MDA-MB-231, 72 h.
A further assay has as its system Aureobasidium pullulans. Description: microbe, parasite or virus in culture. The settings on record: BAM10 ATCC 9348, 168 h. It is filed as functional.
The subject of a further assay is Penicillium cyclopium. Description: Antifungal activity against Penicillium cyclopium Westling after 7 days by microtiter method. It is filed as functional. The settings on record: 168 h.

Each structure is given as a SMILES string.

One may read the IC50 as the concentration at which inhibition is half-maximal. As to `COc1cc2c(c(OC)c1OC)-c1ccc(SC)c(=O)cc1[C@@H](N)CC2`, the MIC against Chaetomium globosum, with Aureobasidium pullulans and against Penicillium cyclopium was over 4000 µg/mL each time. In addition, the IC50 amounted to 1020 nM with LoVo; 1180 nM with DLD-1; 670 nM with MCF7; 9.6 nM in the assay with SK-OV-3 [1]; 1.3 nM in the assay on SK-OV-3 [2]; 1260 nM in the assay with MDA-MB-231.

Source of the values: ChEMBL document CHEMBL4257561, “7-Deacetyl-10-alkylthiocolchicine derivatives - new compounds with potent anticancer and fungicidal activity” (Medchemcomm, 2018).
